Source: article doi:10.1101/2023.12.13.571451 (bioRxiv, 2023)
Positions count from the first letter of the chain named. Numbers in names are those of the source. Results are given in words; binding and its absence hold for the method and conditions named. For part of these data: Binding seen in cells or lysates may run through a third protein. Some binding calls cover weakened binding; strength is not graded here. Sequences can lack the tags named with a protein.

Key:
[1] = biological target: T1, Gnd1-V5 (6-phosphogluconate dehydrogenase) (S. cerevisiae) (UniProt P38720); experiment: non-reducing SDS-PAGE with immunoblot
T1 sequence: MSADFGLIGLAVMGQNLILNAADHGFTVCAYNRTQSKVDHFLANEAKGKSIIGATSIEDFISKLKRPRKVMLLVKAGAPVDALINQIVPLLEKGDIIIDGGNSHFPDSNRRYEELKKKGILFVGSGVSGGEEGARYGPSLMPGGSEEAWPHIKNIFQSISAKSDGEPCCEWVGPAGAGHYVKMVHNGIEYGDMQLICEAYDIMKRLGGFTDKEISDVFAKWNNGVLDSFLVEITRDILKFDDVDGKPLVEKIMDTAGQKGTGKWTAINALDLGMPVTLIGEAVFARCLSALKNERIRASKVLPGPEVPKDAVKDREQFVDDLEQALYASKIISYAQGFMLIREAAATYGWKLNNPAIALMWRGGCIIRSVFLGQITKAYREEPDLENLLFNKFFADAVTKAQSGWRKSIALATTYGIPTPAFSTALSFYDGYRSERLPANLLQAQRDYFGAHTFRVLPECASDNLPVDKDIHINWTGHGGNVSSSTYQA

[2] = biological target: T2, Gnd1^I366M-V5 (S. cerevisiae) (UniProt P38720); experiment: non-reducing SDS-PAGE with immunoblot
T2 sequence: T1 sequence with I366M

Ugp1-V5 (S. cerevisiae) = biological target: T3, Ugp1-V5 (S. cerevisiae) (UniProt P32861); experiment: co-IP
T3 sequence: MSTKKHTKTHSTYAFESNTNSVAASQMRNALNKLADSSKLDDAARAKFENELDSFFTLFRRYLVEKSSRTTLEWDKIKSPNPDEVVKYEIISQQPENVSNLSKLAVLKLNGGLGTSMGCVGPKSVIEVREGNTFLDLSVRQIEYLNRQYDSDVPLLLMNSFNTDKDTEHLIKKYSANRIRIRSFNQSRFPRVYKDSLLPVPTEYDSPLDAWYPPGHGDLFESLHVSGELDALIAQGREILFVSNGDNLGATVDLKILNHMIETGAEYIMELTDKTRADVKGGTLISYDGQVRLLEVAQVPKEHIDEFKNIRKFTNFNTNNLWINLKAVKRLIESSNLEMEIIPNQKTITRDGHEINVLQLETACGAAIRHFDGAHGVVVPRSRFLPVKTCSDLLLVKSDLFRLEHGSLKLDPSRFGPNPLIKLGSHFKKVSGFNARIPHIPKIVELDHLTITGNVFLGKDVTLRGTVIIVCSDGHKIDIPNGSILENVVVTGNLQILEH

[3] = biological target: T4, Gnd1-V5 C365S mutant (S. cerevisiae) (UniProt P38720); experiment: non-reducing SDS-PAGE with immunoblot
T4 sequence: T1 sequence with C365S

Measured: binding

B1: Tsa1^WT-HA (peroxiredoxin Tsa1, single C-terminal HA tag at the endogenous locus) (protein, UniProt P34760 1-196)
chain: MVAQVQKQAPTFKKTAVVDGVFDEVSLDKYKGKYVVLAFIPLAFTFVCPTEIIAFSEAAKKFEEQGAQVLFASTDSEYSLLAWTNIPRKEGGLGPINIPLLADTNHSLSRDYGVLIEEEGVALRGLFIIDPKGVIRHITINDLPVGRNVDEALRLVEAFQWTDKNGTVLPCNWTPGAATIKPTVEDSKEYFEAANK
binds: [1] | [2] | Ugp1-V5 (S. cerevisiae)

B2: Tsa1^C171S-HA (resolving cysteine mutant) (protein, UniProt P34760 1-196)
chain: B1 chain with C171S
binds: [1] | [3] | Ugp1-V5 (S. cerevisiae)
